These results are taken from publication PMC11304257.

Protein sequences, listed by entry. Tags and fused reporters are not part of them.
UniProt P78527: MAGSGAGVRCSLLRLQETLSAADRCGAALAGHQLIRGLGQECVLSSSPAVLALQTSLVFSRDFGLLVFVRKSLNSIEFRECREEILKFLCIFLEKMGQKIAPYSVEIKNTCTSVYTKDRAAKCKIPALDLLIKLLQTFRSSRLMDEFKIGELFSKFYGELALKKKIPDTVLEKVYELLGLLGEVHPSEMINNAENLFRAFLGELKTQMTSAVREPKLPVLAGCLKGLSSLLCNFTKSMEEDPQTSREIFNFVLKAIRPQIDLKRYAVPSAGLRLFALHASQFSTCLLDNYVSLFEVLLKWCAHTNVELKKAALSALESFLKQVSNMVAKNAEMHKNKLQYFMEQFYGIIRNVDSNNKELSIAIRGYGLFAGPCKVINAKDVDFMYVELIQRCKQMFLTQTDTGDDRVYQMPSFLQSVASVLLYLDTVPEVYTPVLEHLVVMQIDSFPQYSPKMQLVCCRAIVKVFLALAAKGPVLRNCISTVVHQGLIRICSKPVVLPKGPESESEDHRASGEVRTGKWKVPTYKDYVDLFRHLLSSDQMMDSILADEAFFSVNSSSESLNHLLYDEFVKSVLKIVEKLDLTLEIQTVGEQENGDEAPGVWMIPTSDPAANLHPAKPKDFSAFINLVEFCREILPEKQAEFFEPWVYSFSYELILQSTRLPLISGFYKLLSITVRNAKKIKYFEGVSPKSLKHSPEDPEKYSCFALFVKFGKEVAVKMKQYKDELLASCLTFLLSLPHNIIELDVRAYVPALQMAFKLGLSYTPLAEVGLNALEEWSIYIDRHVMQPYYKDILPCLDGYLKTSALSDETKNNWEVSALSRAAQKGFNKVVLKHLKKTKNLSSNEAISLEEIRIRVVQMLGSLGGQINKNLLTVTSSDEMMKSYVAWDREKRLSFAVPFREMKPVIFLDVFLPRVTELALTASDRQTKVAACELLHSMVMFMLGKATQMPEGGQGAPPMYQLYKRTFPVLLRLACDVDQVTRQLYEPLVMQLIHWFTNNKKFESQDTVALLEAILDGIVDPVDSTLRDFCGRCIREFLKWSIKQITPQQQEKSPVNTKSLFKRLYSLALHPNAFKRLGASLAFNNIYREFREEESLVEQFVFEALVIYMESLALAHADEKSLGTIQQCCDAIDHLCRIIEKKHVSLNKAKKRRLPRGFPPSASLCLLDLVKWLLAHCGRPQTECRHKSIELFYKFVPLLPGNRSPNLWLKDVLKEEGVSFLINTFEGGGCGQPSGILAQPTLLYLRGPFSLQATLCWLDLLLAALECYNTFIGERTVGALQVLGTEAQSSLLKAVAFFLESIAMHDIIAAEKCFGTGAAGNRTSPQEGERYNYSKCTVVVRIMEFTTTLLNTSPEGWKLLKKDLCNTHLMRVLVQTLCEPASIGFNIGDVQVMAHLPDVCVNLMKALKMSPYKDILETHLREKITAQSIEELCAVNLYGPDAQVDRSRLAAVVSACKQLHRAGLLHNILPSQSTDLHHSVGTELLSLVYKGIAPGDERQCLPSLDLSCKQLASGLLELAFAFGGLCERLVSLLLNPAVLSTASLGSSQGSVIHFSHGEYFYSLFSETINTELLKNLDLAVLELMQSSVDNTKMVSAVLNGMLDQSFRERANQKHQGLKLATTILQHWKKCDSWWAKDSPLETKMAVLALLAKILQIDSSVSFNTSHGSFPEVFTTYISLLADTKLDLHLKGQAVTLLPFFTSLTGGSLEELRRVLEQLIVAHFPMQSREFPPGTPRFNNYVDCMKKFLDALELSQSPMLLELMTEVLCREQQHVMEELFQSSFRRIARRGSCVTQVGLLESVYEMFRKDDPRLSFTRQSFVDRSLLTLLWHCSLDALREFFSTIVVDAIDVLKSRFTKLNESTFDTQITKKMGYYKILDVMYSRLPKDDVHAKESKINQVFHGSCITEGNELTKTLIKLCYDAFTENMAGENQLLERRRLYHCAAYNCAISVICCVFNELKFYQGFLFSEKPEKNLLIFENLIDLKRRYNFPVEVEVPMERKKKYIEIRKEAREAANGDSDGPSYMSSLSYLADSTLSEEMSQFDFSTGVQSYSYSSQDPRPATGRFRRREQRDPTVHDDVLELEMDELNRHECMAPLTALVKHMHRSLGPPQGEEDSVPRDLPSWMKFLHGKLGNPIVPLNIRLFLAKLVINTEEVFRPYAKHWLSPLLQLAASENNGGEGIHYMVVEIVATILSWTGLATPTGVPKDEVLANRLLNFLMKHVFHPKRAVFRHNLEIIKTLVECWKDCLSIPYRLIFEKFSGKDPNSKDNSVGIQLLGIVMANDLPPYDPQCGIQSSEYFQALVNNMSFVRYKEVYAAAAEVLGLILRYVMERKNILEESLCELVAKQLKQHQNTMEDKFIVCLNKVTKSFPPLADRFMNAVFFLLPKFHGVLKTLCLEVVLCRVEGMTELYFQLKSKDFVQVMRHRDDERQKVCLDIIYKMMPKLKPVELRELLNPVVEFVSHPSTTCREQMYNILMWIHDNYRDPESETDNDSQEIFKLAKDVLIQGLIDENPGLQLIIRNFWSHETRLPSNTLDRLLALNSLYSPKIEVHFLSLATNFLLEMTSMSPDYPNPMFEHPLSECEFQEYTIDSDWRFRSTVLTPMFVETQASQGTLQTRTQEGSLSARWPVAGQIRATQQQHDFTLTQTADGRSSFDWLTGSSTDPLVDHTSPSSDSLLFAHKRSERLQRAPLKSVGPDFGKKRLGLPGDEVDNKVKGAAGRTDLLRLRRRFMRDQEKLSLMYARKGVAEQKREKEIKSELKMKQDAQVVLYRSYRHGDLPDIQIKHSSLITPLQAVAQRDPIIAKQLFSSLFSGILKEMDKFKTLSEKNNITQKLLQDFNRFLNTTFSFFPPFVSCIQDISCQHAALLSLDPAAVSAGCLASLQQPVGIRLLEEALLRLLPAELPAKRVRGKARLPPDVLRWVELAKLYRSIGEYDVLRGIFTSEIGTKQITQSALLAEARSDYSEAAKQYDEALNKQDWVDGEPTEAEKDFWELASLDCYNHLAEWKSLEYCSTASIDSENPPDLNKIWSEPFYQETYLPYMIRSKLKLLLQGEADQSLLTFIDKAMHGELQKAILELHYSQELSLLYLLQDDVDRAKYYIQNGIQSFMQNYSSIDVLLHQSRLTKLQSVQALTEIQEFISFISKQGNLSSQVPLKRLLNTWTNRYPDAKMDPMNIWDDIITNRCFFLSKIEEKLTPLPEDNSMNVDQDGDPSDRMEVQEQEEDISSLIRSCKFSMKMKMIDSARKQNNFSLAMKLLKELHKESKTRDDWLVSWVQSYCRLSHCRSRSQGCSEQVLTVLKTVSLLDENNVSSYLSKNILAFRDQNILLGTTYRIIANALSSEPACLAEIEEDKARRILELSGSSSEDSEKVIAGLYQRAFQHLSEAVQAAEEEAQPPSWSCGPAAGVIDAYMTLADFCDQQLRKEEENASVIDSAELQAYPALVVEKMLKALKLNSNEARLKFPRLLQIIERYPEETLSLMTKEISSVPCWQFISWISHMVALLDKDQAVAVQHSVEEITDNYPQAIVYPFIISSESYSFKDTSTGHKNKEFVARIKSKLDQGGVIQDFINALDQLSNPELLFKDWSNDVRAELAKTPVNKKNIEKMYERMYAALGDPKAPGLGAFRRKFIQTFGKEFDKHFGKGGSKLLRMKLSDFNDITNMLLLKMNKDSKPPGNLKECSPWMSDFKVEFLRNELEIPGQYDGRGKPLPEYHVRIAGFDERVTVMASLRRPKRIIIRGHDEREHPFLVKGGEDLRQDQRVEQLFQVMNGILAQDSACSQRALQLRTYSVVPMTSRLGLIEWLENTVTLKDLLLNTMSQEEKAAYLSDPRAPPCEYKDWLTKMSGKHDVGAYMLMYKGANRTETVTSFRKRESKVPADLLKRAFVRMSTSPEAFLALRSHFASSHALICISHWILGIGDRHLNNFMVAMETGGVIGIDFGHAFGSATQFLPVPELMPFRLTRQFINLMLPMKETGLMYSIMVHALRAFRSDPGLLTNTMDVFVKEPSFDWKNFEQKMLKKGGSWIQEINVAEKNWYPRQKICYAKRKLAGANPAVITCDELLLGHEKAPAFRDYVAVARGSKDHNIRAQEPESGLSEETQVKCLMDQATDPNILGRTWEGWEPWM

Results are given in words; binding and its absence hold for the method and conditions named. Binding seen in cells or lysates may run through a third protein. Some results given as binding are weak or reduced against the parent protein; the word gives no strength.

Common to all, as to experiment: co-IP; lysates of NHA/HRas^V12 cells expressing TRIM24 WT, deletion or point mutants; IP lysis buffer (20 mM Tris-HCl pH 7.5, 150 mM NaCl, 1 mM EDTA, 1% Triton X-100), 4 °C, four washes, Western blot; endogenous DNA-PK complex; some panels after NU7441 (4 µM, 24 h), Dabrafenib (40 µM, 24 h), U3 snoRNA knock-down or PHAX knock-down
(In western blotting, separated proteins are transferred to a membrane and probed.)

Assay [1] concerns the target T1, TRIM24 S523A mutant (human) (UniProt O15164).
T1 sequence: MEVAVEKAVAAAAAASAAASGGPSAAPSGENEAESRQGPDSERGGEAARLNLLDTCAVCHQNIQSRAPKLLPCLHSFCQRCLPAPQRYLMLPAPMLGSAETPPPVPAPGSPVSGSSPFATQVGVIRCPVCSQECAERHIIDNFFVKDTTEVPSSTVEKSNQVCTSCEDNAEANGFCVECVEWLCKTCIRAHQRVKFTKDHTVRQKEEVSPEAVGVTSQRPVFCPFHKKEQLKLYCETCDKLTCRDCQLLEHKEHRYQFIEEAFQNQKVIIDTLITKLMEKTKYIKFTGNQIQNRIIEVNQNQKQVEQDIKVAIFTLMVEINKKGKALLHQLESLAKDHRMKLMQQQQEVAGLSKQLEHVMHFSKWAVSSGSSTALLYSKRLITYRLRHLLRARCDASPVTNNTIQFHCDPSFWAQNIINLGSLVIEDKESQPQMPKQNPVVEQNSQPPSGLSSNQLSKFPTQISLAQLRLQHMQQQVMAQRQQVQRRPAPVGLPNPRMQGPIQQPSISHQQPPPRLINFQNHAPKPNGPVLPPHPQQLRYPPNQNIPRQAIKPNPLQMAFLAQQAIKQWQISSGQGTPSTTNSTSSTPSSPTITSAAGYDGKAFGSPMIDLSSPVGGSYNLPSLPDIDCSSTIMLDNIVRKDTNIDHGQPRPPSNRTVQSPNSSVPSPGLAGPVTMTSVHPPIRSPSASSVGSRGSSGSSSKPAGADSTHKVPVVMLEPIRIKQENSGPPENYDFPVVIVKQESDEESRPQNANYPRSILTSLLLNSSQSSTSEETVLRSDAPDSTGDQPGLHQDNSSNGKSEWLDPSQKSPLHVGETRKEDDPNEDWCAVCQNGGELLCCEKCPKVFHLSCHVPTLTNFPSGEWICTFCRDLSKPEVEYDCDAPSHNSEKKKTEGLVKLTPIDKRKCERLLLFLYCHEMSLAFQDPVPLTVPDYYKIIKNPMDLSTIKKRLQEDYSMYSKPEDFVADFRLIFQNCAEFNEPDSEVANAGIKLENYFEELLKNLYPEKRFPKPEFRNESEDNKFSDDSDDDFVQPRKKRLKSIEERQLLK

Assay [2] deals with T2, TRIM24 deletion mutant D2 (lacks residues 393-1050) (human) (UniProt O15164).
T2 sequence: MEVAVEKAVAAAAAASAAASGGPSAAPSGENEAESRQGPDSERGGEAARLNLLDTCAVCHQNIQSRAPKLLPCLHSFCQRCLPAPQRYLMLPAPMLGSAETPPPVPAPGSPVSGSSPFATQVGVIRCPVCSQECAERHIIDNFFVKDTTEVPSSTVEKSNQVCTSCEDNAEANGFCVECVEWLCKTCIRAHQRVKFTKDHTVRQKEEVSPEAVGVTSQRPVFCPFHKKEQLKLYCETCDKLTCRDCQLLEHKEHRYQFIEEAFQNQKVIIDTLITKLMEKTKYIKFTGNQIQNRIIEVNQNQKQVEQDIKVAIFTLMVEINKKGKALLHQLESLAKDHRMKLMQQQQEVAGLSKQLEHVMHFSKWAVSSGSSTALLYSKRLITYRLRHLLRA

The target of assay [3] is T3, TRIM24 deletion mutant D1 (lacks residues 824-1050) (human) (UniProt O15164).
T3 sequence: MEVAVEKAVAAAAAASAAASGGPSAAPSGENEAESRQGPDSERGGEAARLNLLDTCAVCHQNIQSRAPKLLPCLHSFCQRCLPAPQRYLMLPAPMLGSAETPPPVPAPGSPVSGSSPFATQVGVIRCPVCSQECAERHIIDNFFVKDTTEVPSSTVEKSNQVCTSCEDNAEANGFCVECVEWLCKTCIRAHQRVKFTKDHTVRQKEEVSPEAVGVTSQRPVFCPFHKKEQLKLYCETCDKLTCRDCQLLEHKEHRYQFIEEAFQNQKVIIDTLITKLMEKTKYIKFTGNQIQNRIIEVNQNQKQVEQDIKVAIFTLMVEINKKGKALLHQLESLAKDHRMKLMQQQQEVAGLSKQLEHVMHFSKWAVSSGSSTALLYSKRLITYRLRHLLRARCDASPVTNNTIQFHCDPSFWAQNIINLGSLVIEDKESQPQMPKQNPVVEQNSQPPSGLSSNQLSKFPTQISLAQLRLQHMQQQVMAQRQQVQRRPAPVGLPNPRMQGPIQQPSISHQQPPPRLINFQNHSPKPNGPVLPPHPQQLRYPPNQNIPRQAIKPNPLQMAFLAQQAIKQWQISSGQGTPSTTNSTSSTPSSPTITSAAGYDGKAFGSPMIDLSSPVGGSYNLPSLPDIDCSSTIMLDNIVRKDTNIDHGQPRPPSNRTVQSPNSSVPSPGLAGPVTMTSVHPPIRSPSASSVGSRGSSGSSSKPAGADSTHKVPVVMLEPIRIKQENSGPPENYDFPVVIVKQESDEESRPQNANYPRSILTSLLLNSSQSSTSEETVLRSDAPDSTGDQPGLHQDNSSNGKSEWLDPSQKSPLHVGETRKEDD

On to “DNA-dependent protein kinase catalytic subunit (DNA-PKcs) (from UniProt P78527 1-4128) (enzyme)”, for which the figures for the binding result in assay [1], in assay [2] and in assay [3] were “binds”, “no binding” and “binds”, respectively.
